Source: publication PMC6163455, “β-Lactamase Tools for Establishing Cell Internalization and Cytosolic Delivery of Cell Penetrating Peptides” (Biomolecules, 2018)
No constants are given. Whether binding was seen depends on the method and setting. In cells and extracts the contact can be indirect. Some binding calls cover weakened binding; strength is not graded here.

Target: SpyC_C-BLA fusion protein (not stated | E. coli)
Assay: split reporter; split β-lactamase: purified CPP_N-BLA_SpyT incubated with CHO-K1 cells stably expressing SpyC_C-BLA in the cytoplasm; complementation through SpyT/SpyC ligation read as CCF2 cleavage (green to blue) by flow cytometry and live-cell confocal microscopy (4 µM); only the binder purified

B1: 1746c27_N-BLA_SpyT (protein)
chain: MASKKKKQPPKPKKPKTQEKKKKQPPKPKRASSGSHHHHHHGTGAGSGHPETLVKVKDAEDQLGARVGYIELDLNSGKILESFRPEERFPMMSTFKVLLCGAVLSRIDAGQEQLGRRIHYSQNDLVEYSPVTEKHLTDGMTVRELCSAAITMSDNTAANLLLTTIGGPKELTAFLHNMGDHVTRLDRWEPELNEAIPNDERDTTTPAAMATTLRKLLTGGGSASGGSGTGATSGAHIVMVDAYKPTKGGTGGS
binding: binds

B2: 1746_N-BLA_SpyT (protein)
chain: MASPLKPKKPKTQEKKKKQPPKPKKPKTQEKKKKQPPKPKRASSGSHHHHHHGTGAGSGHPETLVKVKDAEDQLGARVGYIELDLNSGKILESFRPEERFPMMSTFKVLLCGAVLSRIDAGQEQLGRRIHYSQNDLVEYSPVTEKHLTDGMTVRELCSAAITMSDNTAANLLLTTIGGPKELTAFLHNMGDHVTRLDRWEPELNEAIPNDERDTTTPAAMATTLRKLLTGGGSASGGSGTGATSGAHIVMVDAYKPTKGGTGGS
binding: binds

B3: 0084_N-BLA_SpyT (protein)
chain: MASRKQKSLQTKLAENPPVPRKKRQSRPRWKQWLQKASSGSHHHHHHGTGAGSGHPETLVKVKDAEDQLGARVGYIELDLNSGKILESFRPEERFPMMSTFKVLLCGAVLSRIDAGQEQLGRRIHYSQNDLVEYSPVTEKHLTDGMTVRELCSAAITMSDNTAANLLLTTIGGPKELTAFLHNMGDHVTRLDRWEPELNEAIPNDERDTTTPAAMATTLRKLLTGGGSASGGSGTGATSGAHIVMVDAYKPTKGGTGGS
binding: binds
